# This is one part of the list. Many values rest on one well or one pass, so single values are uncertain.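 Cells were imaged in 1,536-well plates, and nuclei stained with an antibody against cleaved PARP were counted against all DNA-stained nuclei to give the apoptosis fraction. Screening doses were chosen to leave most cells alive, and resting and induced cleaved-PARP levels differ strongly between cell lines.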
# Assays:
# Test in all cases: cleaved PARP positive nuclei fraction relative to DMSO control; melanoma cells; higher = more apoptosis
# Settings in all cases: library dose: low library concentration; 72 h
# CBRC034 = system: CBRC034 (line from a melanoma biopsy)
# COLO792 = system: COLO792
# COLO800 = system: COLO800
# COLO829 = system: COLO829
# G361 = system: G361
# IPC-298 = system: IPC-298
# IST-MEL1 = system: IST-MEL1
# LB2518-MEL = system: LB2518-MEL
# LOXIMVI = system: LOXIMVI
# MEL-HO = system: MEL-HO
SMILES,cleaved PARP positive nuclei fraction (CBRC034) [%],cleaved PARP positive nuclei fraction (COLO792) [%],cleaved PARP positive nuclei fraction (COLO800) [%],cleaved PARP positive nuclei fraction (COLO829) [%],cleaved PARP positive nuclei fraction (G361) [%],cleaved PARP positive nuclei fraction (IPC-298) [%],cleaved PARP positive nuclei fraction (IST-MEL1) [%],cleaved PARP positive nuclei fraction (LB2518-MEL) [%],cleaved PARP positive nuclei fraction (LOXIMVI) [%],cleaved PARP positive nuclei fraction (MEL-HO) [%]
"C[C@]12O[C@H](C[C@]1(O)CO)n1c3ccccc3c3c4c(c5c6ccccc6n2c5c31)CNC4=O [Lestaurtinib] + C[C@]1(c2nc3c(C(N)=O)cccc3[nH]2)CCCN1 [Veliparib] (first compound 0.004 µM, partner dose 1.4 µM)",60.2,63.9,133,76.3,82.3,137,114,221,43.2,55.2
"C[C@]12O[C@H](C[C@]1(O)CO)n1c3ccccc3c3c4c(c5c6ccccc6n2c5c31)CNC4=O [Lestaurtinib] + C[C@]1(O)C[C@@H](c2nc(-c3ccc4ccc(-c5ccccc5)nc4c3)c3c(N)nccn32)C1 [OSI906] (first compound 0.004 µM, partner dose 0.4 µM)",40,76.5,83.7,186,81.5,51,132,135,138,131
"Cn1cc(C2=C(c3cn(C4CCN(Cc5ccccn5)CC4)c4ccccc34)C(=O)NC2=O)c2ccccc21 [Enzastaurin] + Nc1cccc2c1CN(C1CCC(=O)NC1=O)C2=O [lenalidomide] (first compound 0.8 µM, partner dose 1 µM)",133,159,129,73.1,173,82.2,43.5,53.2,296,272
"N.N.[Cl][Pt][Cl] [cisplatin] + Cn1c(Nc2ccc(C(F)(F)F)cc2)nc2cc(Oc3ccnc(-c4ncc(C(F)(F)F)[nH]4)c3)ccc21 [CHIR265] (first compound 1.6 µM, partner dose 0.08 µM)",231,83.1,95.3,187,127,208,60.6,52.8,78.2,78.1
"Cn1cc(C2=C(c3cn(C4CCN(Cc5ccccn5)CC4)c4ccccc34)C(=O)NC2=O)c2ccccc21 [Enzastaurin] + Cc1nc(Nc2ncc(C(=O)Nc3c(C)cccc3Cl)s2)cc(N2CCN(CCO)CC2)n1 [dasatanib] (first compound 0.8 µM, partner dose 0.004 µM)",55.3,38.7,133,82.5,125,40.8,74.7,57.5,143,33.5
"N.N.[Cl][Pt][Cl] [cisplatin] + Nc1nc(F)nc2c1ncn2[C@@H]1O[C@H](CO)[C@@H](O)[C@@H]1O [fludarabine] (first compound 1.6 µM, partner dose 0.2 µM)",24.2,174,82.9,81.3,113,43.1,56.9,144,158,91.1
"O=C(/C=C/c1cccnc1)NCCCCC1CCN(C(=O)c2ccccc2)CC1 + C[C@]12O[C@H](C[C@]1(O)CO)n1c3ccccc3c3c4c(c5c6ccccc6n2c5c31)CNC4=O [Lestaurtinib] (first compound 0.01 µM, partner dose 0.004 µM)",2090,320,219,285,5310,414,266,593,34.6,143
"C[C@]12O[C@H](C[C@]1(O)CO)n1c3ccccc3c3c4c(c5c6ccccc6n2c5c31)CNC4=O [Lestaurtinib] + CC(=O)O[C@@]12CO[C@@H]1C[C@H](O)[C@@]1(C)C(=O)[C@H](O)C3=C(C)[C@@H](OC(=O)[C@H](O)[C@@H](NC(=O)OC(C)(C)C)c4ccccc4)C[C@@](O)([C@@H](OC(=O)c4ccccc4)[C@H]21)C3(C)C [Docetaxel] (first compound 0.004 µM, partner dose 0.0001 µM)",96.1,522,291,255,186,137,150,64.3,101,63.3
